Differences between knockout arms are mostly noise.
Test system: SKBR3
Assay: relative cell number vs DMSO control (72 h) (% of DMSO); higher = less growth inhibition (more cells)
Protocol: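 QMAP-Seq: a pool of 5 breast cancer cell lines (ZR-75-1, SKBR3, HCC-38, MDA-MB-231, BT-20), each carrying 12 doxycycline-inducible Cas9 sgRNA perturbations (11 knockouts plus non-targeting sgNT), was treated with compounds for 72 h at four 10-fold doses (10 nM-10 uM or 1 nM-1 uM range). Barcodes were amplified and sequenced, and cell number was interpolated from 293T spike-in standard curves. The result is expressed as % of the median of DMSO wells. Two biological replicates.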

CN(C)c1cc(NC(=O)CNC(C)(C)C)c(O)c2c1C[C@H]1C[C@H]3[C@H](N(C)C)C(O)=C(C(N)=O)C(=O)[C@@]3(O)C(O)=C1C2=O [Tigecycline]
Conditions | relative cell number
sgRNA knockout: sgATF3, 10 nM | 120
sgRNA knockout: sgATF3, 100 nM | 104
sgRNA knockout: sgATF3, 1000 nM | 114
sgRNA knockout: sgATF3, 10000 nM | 109
sgRNA knockout: sgATF4, 10 nM | 103
sgRNA knockout: sgATF4, 100 nM | 93.5
sgRNA knockout: sgATF4, 1000 nM | 99.5
sgRNA knockout: sgATF4, 10000 nM | 107
sgRNA knockout: sgATF6, 10 nM | 89.8
sgRNA knockout: sgATF6, 100 nM | 110
sgRNA knockout: sgATF6, 1000 nM | 89.8
sgRNA knockout: sgATF6, 10000 nM | 107
sgRNA knockout: sgATG7, 10 nM | 99.6
sgRNA knockout: sgATG7, 100 nM | 90.1
sgRNA knockout: sgATG7, 1000 nM | 124.4
sgRNA knockout: sgATG7, 10000 nM | 126
sgRNA knockout: sgERN1, 10 nM | 105
sgRNA knockout: sgERN1, 100 nM | 93.2
sgRNA knockout: sgERN1, 1000 nM | 136
sgRNA knockout: sgERN1, 10000 nM | 98.6
sgRNA knockout: sgHSF1, 10 nM | 83.2
sgRNA knockout: sgHSF1, 100 nM | 90.4
sgRNA knockout: sgHSF1, 1000 nM | 93.6
sgRNA knockout: sgHSF1, 10000 nM | 74.4
sgRNA knockout: sgHSF2, 10 nM | 98.2
sgRNA knockout: sgHSF2, 100 nM | 100
sgRNA knockout: sgHSF2, 1000 nM | 95.2
sgRNA knockout: sgHSF2, 10000 nM | 101
sgRNA knockout: sgKEAP1, 10 nM | 97.6
sgRNA knockout: sgKEAP1, 100 nM | 75.6
sgRNA knockout: sgKEAP1, 1000 nM | 99.8
sgRNA knockout: sgKEAP1, 10000 nM | 82.7
sgRNA knockout: sgNFE2L2, 10 nM | 92.1
sgRNA knockout: sgNFE2L2, 100 nM | 94.8
sgRNA knockout: sgNFE2L2, 1000 nM | 89.7
sgRNA knockout: sgNFE2L2, 10000 nM | 105
sgRNA knockout: sgSLC35F2, 10 nM | 96.6
sgRNA knockout: sgSLC35F2, 100 nM | 105
sgRNA knockout: sgSLC35F2, 1000 nM | 92.5
sgRNA knockout: sgSLC35F2, 10000 nM | 104
sgRNA knockout: sgXBP1, 10 nM | 107
sgRNA knockout: sgXBP1, 100 nM | 76.7
sgRNA knockout: sgXBP1, 1000 nM | 121
sgRNA knockout: sgXBP1, 10000 nM | 89.2

CC[C@@]1(O)C(=O)OCc2c1cc1n(c2=O)Cc2cc3c(CN(C)C)c(O)ccc3nc2-1 [Topotecan]
Conditions | relative cell number
sgRNA knockout: sgATF3, 10 nM | 78.2
sgRNA knockout: sgATF3, 100 nM | 19.6
sgRNA knockout: sgATF3, 1000 nM | 17
sgRNA knockout: sgATF3, 10000 nM | 9.65
sgRNA knockout: sgATF4, 10 nM | 68.9
sgRNA knockout: sgATF4, 100 nM | 36.5
sgRNA knockout: sgATF4, 1000 nM | 16.8
sgRNA knockout: sgATF4, 10000 nM | 7.13
sgRNA knockout: sgATF6, 10 nM | 63.3
sgRNA knockout: sgATF6, 100 nM | 30
sgRNA knockout: sgATF6, 1000 nM | 14
sgRNA knockout: sgATF6, 10000 nM | 8.34
sgRNA knockout: sgATG7, 10 nM | 56.2
sgRNA knockout: sgATG7, 100 nM | 34.4
sgRNA knockout: sgATG7, 1000 nM | 12.7
sgRNA knockout: sgATG7, 10000 nM | 6.94
sgRNA knockout: sgERN1, 10 nM | 57.3
sgRNA knockout: sgERN1, 100 nM | 39.8
sgRNA knockout: sgERN1, 1000 nM | 20.3
sgRNA knockout: sgERN1, 10000 nM | 7.15
sgRNA knockout: sgHSF1, 10 nM | 72.1
sgRNA knockout: sgHSF1, 100 nM | 36.7
sgRNA knockout: sgHSF1, 1000 nM | 15.3
sgRNA knockout: sgHSF1, 10000 nM | 8.95
sgRNA knockout: sgHSF2, 10 nM | 77
sgRNA knockout: sgHSF2, 100 nM | 45.1
sgRNA knockout: sgHSF2, 1000 nM | 15.6
sgRNA knockout: sgHSF2, 10000 nM | 8.27
sgRNA knockout: sgKEAP1, 10 nM | 63.2
sgRNA knockout: sgKEAP1, 100 nM | 26
sgRNA knockout: sgKEAP1, 1000 nM | 14.2
sgRNA knockout: sgKEAP1, 10000 nM | 8
sgRNA knockout: sgNFE2L2, 10 nM | 89.5
sgRNA knockout: sgNFE2L2, 100 nM | 27.9
sgRNA knockout: sgNFE2L2, 1000 nM | 11.2
sgRNA knockout: sgNFE2L2, 10000 nM | 8.9
sgRNA knockout: sgSLC35F2, 10 nM | 66.5
sgRNA knockout: sgSLC35F2, 100 nM | 34
sgRNA knockout: sgSLC35F2, 1000 nM | 12.8
sgRNA knockout: sgSLC35F2, 10000 nM | 6.44
sgRNA knockout: sgXBP1, 10 nM | 73.9
sgRNA knockout: sgXBP1, 100 nM | 39.49
sgRNA knockout: sgXBP1, 1000 nM | 16
sgRNA knockout: sgXBP1, 10000 nM | 10

CN1CCN(CCCN2c3ccccc3Sc3ccc(C(F)(F)F)cc32)CC1 [Trifluoperazine]
Conditions | relative cell number
sgRNA knockout: sgATF3, 10 nM | 64.1
sgRNA knockout: sgATF3, 100 nM | 100
sgRNA knockout: sgATF3, 1000 nM | 98.2
sgRNA knockout: sgATF3, 10000 nM | 51.16
sgRNA knockout: sgATF4, 10 nM | 92.9
sgRNA knockout: sgATF4, 100 nM | 88.6
sgRNA knockout: sgATF4, 1000 nM | 94.8
sgRNA knockout: sgATF4, 10000 nM | 47.8
sgRNA knockout: sgATF6, 10 nM | 70.9
sgRNA knockout: sgATF6, 100 nM | 81.3
sgRNA knockout: sgATF6, 1000 nM | 84.1
sgRNA knockout: sgATF6, 10000 nM | 53
sgRNA knockout: sgATG7, 10 nM | 67.5
sgRNA knockout: sgATG7, 100 nM | 84.7
sgRNA knockout: sgATG7, 1000 nM | 92.6
sgRNA knockout: sgATG7, 10000 nM | 50.6
sgRNA knockout: sgERN1, 10 nM | 68.5
sgRNA knockout: sgERN1, 100 nM | 82.6
sgRNA knockout: sgERN1, 1000 nM | 80.3
sgRNA knockout: sgERN1, 10000 nM | 52.4
sgRNA knockout: sgHSF1, 10 nM | 83.3
sgRNA knockout: sgHSF1, 100 nM | 72.5
sgRNA knockout: sgHSF1, 1000 nM | 73.7
sgRNA knockout: sgHSF1, 10000 nM | 48.5
sgRNA knockout: sgHSF2, 10 nM | 81.6
sgRNA knockout: sgHSF2, 100 nM | 72.4
sgRNA knockout: sgHSF2, 1000 nM | 91
sgRNA knockout: sgHSF2, 10000 nM | 45.4
sgRNA knockout: sgKEAP1, 10 nM | 84.4
sgRNA knockout: sgKEAP1, 100 nM | 93.7
sgRNA knockout: sgKEAP1, 1000 nM | 95.9
sgRNA knockout: sgKEAP1, 10000 nM | 58.6
sgRNA knockout: sgNFE2L2, 10 nM | 70.5
sgRNA knockout: sgNFE2L2, 100 nM | 88.2
sgRNA knockout: sgNFE2L2, 1000 nM | 89.2
sgRNA knockout: sgNFE2L2, 10000 nM | 51.2
sgRNA knockout: sgSLC35F2, 10 nM | 87.233
sgRNA knockout: sgSLC35F2, 100 nM | 93.4
sgRNA knockout: sgSLC35F2, 1000 nM | 73.4
sgRNA knockout: sgSLC35F2, 10000 nM | 46.9
sgRNA knockout: sgXBP1, 10 nM | 93.1
sgRNA knockout: sgXBP1, 100 nM | 108
sgRNA knockout: sgXBP1, 1000 nM | 93.2
sgRNA knockout: sgXBP1, 10000 nM | 58.4

CN1CCc2c(c3ccccc3n2Cc2ccc(C(=O)NO)cc2)C1 [TubastatinA]
Conditions | relative cell number
sgRNA knockout: sgATF3, 10 nM | 67.3
sgRNA knockout: sgATF3, 100 nM | 76.5
sgRNA knockout: sgATF3, 1000 nM | 85.6
sgRNA knockout: sgATF3, 10000 nM | 22.8
sgRNA knockout: sgATF4, 10 nM | 114
sgRNA knockout: sgATF4, 100 nM | 101
sgRNA knockout: sgATF4, 1000 nM | 93.2
sgRNA knockout: sgATF4, 10000 nM | 33.9
sgRNA knockout: sgATF6, 10 nM | 98
sgRNA knockout: sgATF6, 100 nM | 82.1
sgRNA knockout: sgATF6, 1000 nM | 87.05
sgRNA knockout: sgATF6, 10000 nM | 27.8
sgRNA knockout: sgATG7, 10 nM | 103
sgRNA knockout: sgATG7, 100 nM | 86.4
sgRNA knockout: sgATG7, 1000 nM | 90.6
sgRNA knockout: sgATG7, 10000 nM | 34.7
sgRNA knockout: sgERN1, 10 nM | 70.9
sgRNA knockout: sgERN1, 100 nM | 94.4
sgRNA knockout: sgERN1, 1000 nM | 87.2
sgRNA knockout: sgERN1, 10000 nM | 37
sgRNA knockout: sgHSF1, 10 nM | 94.2
sgRNA knockout: sgHSF1, 100 nM | 85.6
sgRNA knockout: sgHSF1, 1000 nM | 74.9
sgRNA knockout: sgHSF1, 10000 nM | 20.6
sgRNA knockout: sgHSF2, 10 nM | 79.98
sgRNA knockout: sgHSF2, 100 nM | 92.4
sgRNA knockout: sgHSF2, 1000 nM | 91.1
sgRNA knockout: sgHSF2, 10000 nM | 31.3
sgRNA knockout: sgKEAP1, 10 nM | 91.3
sgRNA knockout: sgKEAP1, 100 nM | 80.6
sgRNA knockout: sgKEAP1, 1000 nM | 65.46
sgRNA knockout: sgKEAP1, 10000 nM | 27.8
sgRNA knockout: sgNFE2L2, 10 nM | 101
sgRNA knockout: sgNFE2L2, 100 nM | 88.6
sgRNA knockout: sgNFE2L2, 1000 nM | 90.2
sgRNA knockout: sgNFE2L2, 10000 nM | 35.2
sgRNA knockout: sgSLC35F2, 10 nM | 76.9
sgRNA knockout: sgSLC35F2, 100 nM | 74.7
sgRNA knockout: sgSLC35F2, 1000 nM | 102
sgRNA knockout: sgSLC35F2, 10000 nM | 28.9
sgRNA knockout: sgXBP1, 10 nM | 117
sgRNA knockout: sgXBP1, 100 nM | 71.1
sgRNA knockout: sgXBP1, 1000 nM | 97.8
sgRNA knockout: sgXBP1, 10000 nM | 22.9

From the supplement of paper PMC7661543
